Assay results as given in patent publication US20230190761A1, “METHYLENE BLUE STABILIZED MRNA COMPOSITIONS” (ModernaTX, Inc., priority 2020, published 2023).
Where a name gives a salt, the structure may show the parent alone. For at least one compound, name, drawing or mass did not settle the structure.

System: mRNA within LNP formulations
Assay: Screen of molecular dyes on mRNA stability within LNP formulations (RP-HPLC)
Assay type: physicochemical
Settings: for Main Peak Purity after 4 days at 40° C. (%): 2 mM dye in mRNA-LNP, RP-HPLC, no value (—) = physically unstable, no reliable chromatographic result, interpreted as destabilizing; for Difference relative to No Dye: main peak purity, 2 mM dye, 4 days at 40° C., ±4% interpreted as significant
Method: This example discusses the effects of various dye molecules on mRNA stability within LNP formulations. To evaluate the potential stabilization effects of dyes, LNP compositions were prepared containing 2 mM of one of 25 dyes. After incubation for 4 days at 40° C., main peak mRNA purity was measured by RP-HPLC. Variance within this study was estimated from three independent sample replicates with no dye (Sample IDs D0a, D0b and D0c as shown in Table 4) or with 2 mM methylene blue (Sample IDs D1a, D1b and D1c as shown in Table 4). […] The main peak purity measured in each mRNA-LNP formulation, as well as its difference relative to the no dye controls is shown in Table 4. Positive differences relative to no dye represent improvements in mRNA stability, and negative differences represent worsened mRNA stability.

Structure (SMILES) | Main Peak Purity after 4 days at 40° C. (%) | Difference relative to No Dye [%]
O=S1(=O)OC(c2ccc(O)cc2)(c2ccc(O)cc2)c2ccccc21 [Phenol Red] | 46.76 | −28
O=C1OC2(c3ccc(O)cc3Oc3cc(O)ccc32)c2ccccc21 [Fluorescein sodium salt] | 76.41 | 1
